Results are given in words; binding and its absence hold for the method and conditions named. Binding seen in cells or lysates may run through a third protein. Some binding calls cover weakened binding; strength is not graded here.
T1: syndecan-1 (human (endogenous in HUVEC)) (UniProt P18827)
T1 sequence: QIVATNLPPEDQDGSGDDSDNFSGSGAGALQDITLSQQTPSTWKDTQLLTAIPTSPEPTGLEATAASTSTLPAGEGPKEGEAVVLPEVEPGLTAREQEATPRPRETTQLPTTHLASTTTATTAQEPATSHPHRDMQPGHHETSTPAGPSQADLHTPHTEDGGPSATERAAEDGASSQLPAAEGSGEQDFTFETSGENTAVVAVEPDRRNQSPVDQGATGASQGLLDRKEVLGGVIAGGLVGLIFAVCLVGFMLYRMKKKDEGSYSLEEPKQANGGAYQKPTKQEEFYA

Protein sequences, listed by entry. Tags and fused reporters are not part of them. Residues count along the entry.
UniProt Q9Y5R2, residues 156-645: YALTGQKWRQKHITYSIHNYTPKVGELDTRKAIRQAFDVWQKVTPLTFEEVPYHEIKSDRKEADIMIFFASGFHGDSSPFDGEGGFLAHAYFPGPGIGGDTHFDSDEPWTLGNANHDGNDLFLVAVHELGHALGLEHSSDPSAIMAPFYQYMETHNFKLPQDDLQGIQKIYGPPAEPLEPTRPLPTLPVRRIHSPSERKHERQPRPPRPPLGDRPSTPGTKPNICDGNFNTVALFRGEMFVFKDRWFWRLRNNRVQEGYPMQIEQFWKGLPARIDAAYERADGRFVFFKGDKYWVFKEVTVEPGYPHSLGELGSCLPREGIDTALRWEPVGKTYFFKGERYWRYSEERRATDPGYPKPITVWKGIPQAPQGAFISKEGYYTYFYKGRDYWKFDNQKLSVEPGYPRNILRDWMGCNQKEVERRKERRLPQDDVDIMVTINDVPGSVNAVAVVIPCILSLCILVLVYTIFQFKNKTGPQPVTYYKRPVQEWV

T2: syndecan-1 (in VE-cadherin-positive endothelial extracellular vesicles from plasma) (human (endogenous in plasma extracellular vesicles)) (UniProt P18827)
T2 sequence: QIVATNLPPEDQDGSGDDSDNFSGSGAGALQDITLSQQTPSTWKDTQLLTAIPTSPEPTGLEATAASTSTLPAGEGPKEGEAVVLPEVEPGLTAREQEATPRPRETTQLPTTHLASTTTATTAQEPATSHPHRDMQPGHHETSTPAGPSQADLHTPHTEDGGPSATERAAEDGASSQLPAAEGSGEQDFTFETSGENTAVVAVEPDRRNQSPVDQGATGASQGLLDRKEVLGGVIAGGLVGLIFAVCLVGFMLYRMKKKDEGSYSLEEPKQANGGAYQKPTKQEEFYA


Experiments:
[1] = target: T1, syndecan-1 (human (endogenous in HUVEC)); assay: co-IP; HUVEC lysate (50 mM tris-HCl pH 7.5, 150 mM NaCl, EDTA, 1% Triton X-100), anti-syndecan-1 antibody and protein A magnetic beads, washed with PBS, immunoblot for membrane MMPs; cells under normoxia or hypoxia-reoxygenation
[2] = target: T2, syndecan-1 (in VE-cadherin-positive endothelial extracellular vesicles from plasma) (human (endogenous in plasma extracellular vesicles)); assay: co-IP; VE-cadherin-positive extracellular vesicles from 300 ul plasma of five healthy controls and five hemorrhagic trauma patients, 0.1% Triton X-100, syndecan-1 immunoprecipitation as for cell lysates, immunoblot for MMP24

binding [1]	binding [2]	Molecule
binds	–	matrix metalloproteinase 24 (from UniProt Q9Y5R2 156-645) (enzyme)
–	binds	matrix metalloproteinase 24 (in VE-cadherin-positive endothelial extracellular vesicles from plasma) (from UniProt Q9Y5R2 156-645) (enzyme)
binds	–	matrix metalloproteinase 25 (enzyme, UniProt Q9NPA2 108-539) YALSGSVWKKRTLTWRVRSFPQSSQLSQETVRVLMSYALMAWGMESGLTFHEVDSPQGQEPDILIDFARAFHQDSYPFDGLGGTLAHAFFPGEHPISGDTHFDDEETWTFGSKDGEGTDLFAVAVHEFGHALGLGHSSAPNSIMRPFYQGPVGDPDKYRLSQDDRDGLQQLYGKAPQTPYDKPTRKPLAPPPQPPASPTHSPSFPIPDRCEGNFDAIANIRGETFFFKGPWFWRLQPSGQLVSPRPARLHRFWEGLPAQVRVVQAAYARHRDGRILLFSGPQFWVFQDRQLEGGARPLTELGLPPGEEVDAVFSWPQNGKTYLVRGRQYWRYDEAAARPDPGYPRDLSLWEGAPPSPDDVTVSNAGDTYFFKGAHYWRFPKNSIKTEPDAPQPMGPNWLDCPAPSSGPRAPRPPKATPVSETCDCQCELNQA
